# Experimental data reported in the supplement of paper PMC8728848.
# Some of the results follow.
# B1: SHCBP1-GST (Homo sapiens), Q8NEM2 (protein)
# chain: MADGSLTGGGLEAAAMAPERMGWAVEQELASLEKGLFQDEDSCSDCSYRDKPGSSLQSFMPEGKTFFPEIFQTNQLLFYERFRAYQDYILADCKASEVQEFTAEFLEKVLEPSGWRAVWHTNVFKVLVEITDVDFAALKAVVRLAEPYLCDSQVSTFTMECMKELLDLKEHRLPLQELWVVFDDSGVFDQTALAIEHVRFFYQNIWRSWDEEEEDEYDYFVRCVEPRLRLHYDILEDRVPSGLIVDYHNLLSQCEESYRKFLNLRSSLSNCNSDSEQENISMVEGLKLYSEMEQLKQKLKLIENPLLRYVFGYQKNSNIQAKGVRSSGQKITHVVSSTMMAGLLRSLLTDRLCQEPGEEEREIQFHSDPLSAINACFEGDTVIVCPGHYVVHGTFSIADSIELEGYGLPDDIVIEKRGKGDTFVDCTGADIKISGIKFVQHDAVEGILIVHRGKTTLENCVLQCETTGVTVRTSAEFLMKNSDLYGAKGAGIEIYPGSQCTLSDNGIHHCKEGILIKDFLDEHYDIPKISMVNNIIHNNEGYGVVLVKPTIFSDLQENAEDGTEENKALKIQTSGEPDVAERVDLEELIECATGKMELCARTDPSEQVEGNCEIVNELIAASTQKGQIKKKRLSELGITQADDNLMSQEMFVGIVGNQFKWNGKGSFGTFLF
# Tests used:
# Test in all cases: glycan array binding signal (z-score within array); higher = stronger binding
# Settings in all cases: glycan notation: IUPAC condensed, linker removed
# [1] = molecular target: Neu5Ac(a2-6)Gal(b1-4)GlcNAc(b1-2)Man(a1-3)[GlcNAc(b1-4)][Neu5Ac(a2-6)Gal(b1-4)GlcNAc(b1-2)Man(a1-6)]Man(b1-4)GlcNAc(b1-4)GlcNAc
# In short: (§1)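 The Consortium for Functional Glycomics database supplied 3228 glycan arrays, of which those lacking an available protein sequence were dropped. The binding signal, a within-array Z-score, was averaged across arrays of the same protein sequence and across linkers. Negative scores can be read as non-binding.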
# [2] = molecular target: Neu5Ac(a2-6)Gal(b1-4)GlcNAc(b1-2)Man(a1-3)[Man(a1-6)]Man(b1-4)GlcNAc(b1-4)GlcNAc
# In short: as §1
# [3] = molecular target: Neu5Ac(a2-6)Gal(b1-4)GlcNAc(b1-2)Man(a1-3)[Neu5Ac(a2-3)Gal(b1-4)GlcNAc(b1-2)Man(a1-6)]Man(b1-4)GlcNAc(b1-4)GlcNAc
# In short: as §1
# [4] = molecular target: Neu5Ac(a2-6)Gal(b1-4)GlcNAc(b1-2)Man(a1-3)[Neu5Ac(a2-6)Gal(b1-4)GlcNAc(b1-2)Man(a1-6)]Man(b1-4)GlcNAc(b1-4)GlcNAc
# In short: as §1
# [5] = molecular target: Neu5Ac(a2-6)Gal(b1-4)GlcNAc(b1-2)Man(a1-3)[Neu5Ac(a2-6)Gal(b1-4)GlcNAc(b1-2)Man(a1-6)]Man(b1-4)GlcNAc(b1-4)[Fuc(a1-6)]GlcNAc
# In short: as §1
# [6] = molecular target: Neu5Ac(a2-6)Gal(b1-4)GlcNAc(b1-2)Man(a1-6)Man(b1-4)GlcNAc(b1-4)GlcNAc
# In short: as §1
# [7] = molecular target: Neu5Ac(a2-6)Gal(b1-4)GlcNAc(b1-2)Man(a1-6)[Gal(b1-4)GlcNAc(b1-2)Man(a1-3)]Man(b1-4)GlcNAc(b1-4)GlcNAc
# In short: as §1
# [8] = molecular target: Neu5Ac(a2-6)Gal(b1-4)GlcNAc(b1-2)Man(a1-6)[GlcNAc(b1-2)Man(a1-3)]Man(b1-4)GlcNAc(b1-4)GlcNAc
# In short: as §1
# [9] = molecular target: Neu5Ac(a2-6)Gal(b1-4)GlcNAc(b1-2)Man(a1-6)[Man(a1-3)]Man(b1-4)GlcNAc(b1-4)GlcNAc
# In short: as §1
# [10] = molecular target: Neu5Ac(a2-6)Gal(b1-4)GlcNAc(b1-2)[Neu5Ac(a2-6)Gal(b1-4)GlcNAc(b1-4)]Man(a1-3)[GlcNAc(b1-4)][Neu5Ac(a2-6)Gal(b1-4)GlcNAc(b1-2)[Neu5Ac(a2-6)Gal(b1-4)GlcNAc(b1-6)]Man(a1-6)]Man(b1-4)GlcNAc(b1-4)GlcNAc
# In short: as §1
# [11] = molecular target: Neu5Ac(a2-6)Gal(b1-4)GlcNAc(b1-2)[Neu5Ac(a2-6)Gal(b1-4)GlcNAc(b1-4)]Man(a1-3)[GlcNAc(b1-4)][Neu5Ac(a2-6)Gal(b1-4)GlcNAc(b1-4)Man(a1-6)]Man(b1-4)GlcNAc(b1-4)GlcNAc
# In short: as §1
# [12] = molecular target: Neu5Ac(a2-6)Gal(b1-4)GlcNAc(b1-2)[Neu5Ac(a2-6)Gal(b1-4)GlcNAc(b1-6)]Man(a1-6)[Neu5Ac(a2-6)Gal(b1-4)GlcNAc(b1-2)Man(a1-3)][GlcNAc(b1-4)]Man(b1-4)GlcNAc(b1-4)GlcNAc
# In short: as §1
# [13] = molecular target: Neu5Ac(a2-6)Gal(b1-4)GlcNAc(b1-3)Gal(b1-3)GlcNAc
# In short: as §1
# [14] = molecular target: Neu5Ac(a2-6)Gal(b1-4)GlcNAc(b1-3)Gal(b1-4)GlcNAc
# In short: as §1
# [15] = molecular target: Neu5Ac(a2-6)Gal(b1-4)GlcNAc(b1-3)Gal(b1-4)GlcNAc(b1-2)Man(a1-3)[Neu5Ac(a2-6)Gal(b1-4)GlcNAc(b1-3)Gal(b1-4)GlcNAc(b1-2)Man(a1-6)]GalNAc
# In short: as §1
# [16] = molecular target: Neu5Ac(a2-6)Gal(b1-4)GlcNAc(b1-3)Gal(b1-4)GlcNAc(b1-3)Gal(b1-4)GlcNAc
# In short: as §1
# [17] = molecular target: Neu5Ac(a2-6)Gal(b1-4)GlcNAc(b1-3)Gal(b1-4)GlcNAc(b1-3)Gal(b1-4)GlcNAc(b1-2)Man(a1-3)[Neu5Ac(a2-6)Gal(b1-4)GlcNAc(b1-3)Gal(b1-4)GlcNAc(b1-3)Gal(b1-4)GlcNAc(b1-2)Man(a1-6)]GalNAc
# In short: as §1
# [18] = molecular target: Neu5Ac(a2-6)Gal(b1-4)GlcNAc(b1-3)Gal(b1-4)GlcNAc(b1-3)GalNAc
# In short: as §1
# [19] = molecular target: Neu5Ac(a2-6)Gal(b1-4)GlcNAc(b1-3)Gal(b1-4)GlcNAc(b1-3)[Neu5Ac(a2-6)Gal(b1-4)GlcNAc(b1-3)Gal(b1-4)GlcNAc(b1-6)]GalNAc
# In short: as §1
# [20] = molecular target: Neu5Ac(a2-6)Gal(b1-4)GlcNAc(b1-3)Gal(b1-4)GlcNAc(b1-6)[Gal(b1-3)]GalNAc
# In short: as §1
# [21] = molecular target: Neu5Ac(a2-6)Gal(b1-4)GlcNAc(b1-3)Gal(b1-4)[Fuc(a1-3)]GlcNAc(b1-3)Gal(b1-4)[Fuc(a1-3)]GlcNAc
# In short: as §1
# [22] = molecular target: Neu5Ac(a2-6)Gal(b1-4)GlcNAc(b1-3)GalNAc
# In short: as §1
# [23] = molecular target: Neu5Ac(a2-6)Gal(b1-4)GlcNAc(b1-3)[Neu5Ac(a2-6)Gal(b1-4)GlcNAc(b1-6)]GalNAc
# In short: as §1
# [24] = molecular target: Neu5Ac(a2-6)Gal(b1-4)GlcNAc(b1-6)GalNAc
# In short: as §1
# [25] = molecular target: Neu5Ac(a2-6)Gal(b1-4)GlcNAc(b1-6)[Gal(b1-3)GlcNAc(b1-3)]Gal(b1-4)Glc
# In short: as §1
# [26] = molecular target: Neu5Ac(a2-6)Gal(b1-4)GlcNAc(b1-6)[Gal(b1-3)]GalNAc
# In short: as §1
# [27] = molecular target: Neu5Ac(a2-6)Gal(b1-4)GlcNAc6S
# In short: as §1
# Neu5Ac(a2-6)GalNAc = molecular target: Neu5Ac(a2-6)GalNAc
# In short: as §1
# [28] = molecular target: Neu5Ac(a2-6)GalNAc(b1-4)GlcNAc
# In short: as §1
# [29] = molecular target: Neu5Ac(a2-6)GalNAc(b1-4)GlcNAc6S
# In short: as §1
binder,measurement,setting,value
B1,glycan array binding signal (z-score),[1],-0.538
same,glycan array binding signal (z-score),[2],-0.577
same,glycan array binding signal (z-score),[3],0.084
same,glycan array binding signal (z-score),[4],0.513
same,glycan array binding signal (z-score),[5],-0.177
same,glycan array binding signal (z-score),[6],-0.206
same,glycan array binding signal (z-score),[7],-0.587
same,glycan array binding signal (z-score),[8],-0.168
same,glycan array binding signal (z-score),[9],0.205
same,glycan array binding signal (z-score),[10],-0.645
same,glycan array binding signal (z-score),[11],-0.458
same,glycan array binding signal (z-score),[12],-0.249
same,glycan array binding signal (z-score),[13],-0.24
same,glycan array binding signal (z-score),[14],-1.12
same,glycan array binding signal (z-score),[15],0.908
same,glycan array binding signal (z-score),[16],0.126
same,glycan array binding signal (z-score),[17],2.65
same,glycan array binding signal (z-score),[18],-0.755
same,glycan array binding signal (z-score),[19],-0.278
same,glycan array binding signal (z-score),[20],-0.375
same,glycan array binding signal (z-score),[21],0.324
same,glycan array binding signal (z-score),[22],2.41
same,glycan array binding signal (z-score),[23],-0.196
same,glycan array binding signal (z-score),[24],-0.322
same,glycan array binding signal (z-score),[25],-0.621
same,glycan array binding signal (z-score),[26],-1.17
same,glycan array binding signal (z-score),[27],-0.261
same,glycan array binding signal (z-score),Neu5Ac(a2-6)GalNAc,-0.726
same,glycan array binding signal (z-score),[28],-1.02
same,glycan array binding signal (z-score),[29],0.128

# Fetched one by one from the entries so far (two):
binder,measurement,setting,value
B1,glycan array binding signal (z-score),[16],0.126
same,glycan array binding signal (z-score),[29],0.128
